Experimental data taken from PubChem BioAssay AID504444 (National Center for Advancing Translational Sciences (NCATS), 2011).
In all, about 360,000 compounds went through this assay and about 7,500 (2.1%) were called active. Inconclusive results, whose numbers are uncertain, are shown with a selection of clear calls. The call rests on the fitted dose curve; in most records, active means well fitted inhibition curve with a large enough effect; inconclusive means small, poorly fitted or top-dose-only effect, or effect the other way; inactive means flat fitted curve, though single readings scatter. A potency beside an inconclusive call is a rough fit, not a confirmed value.

Assay: Nrf2 qHTS screen for inhibitors; further: nearly all actives have a fitted effect of over 60% in size
Conditions: A549 ARE-Fluc reporter, luciferase luminescence, 18-24 h; series mostly up to 46 µM
Method in brief: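 Quantitative HTS in A549 cells stably bearing an antioxidant response element-firefly luciferase construct. Inhibition of Nrf2-driven transcription was scored by luminescence after 18-24 h of compound exposure at 37 °C.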
Potency means the concentration at half of the fitted maximal effect.

SMILES	Potency
CN1CCc2c(sc(/N=C/c3cc(Cl)ccc3O)c2C#N)C1	inconclusive: 20.6 µM [activator, single point]
CCn1c(C(=O)NCc2ccccc2)cc2sc(Cl)cc21	inconclusive: 20.6 µM [activator, single point]
Cc1ccc(S(=O)(=O)/N=C(/c2ccc(F)cc2)N2CCCCC2)cc1	inactive
CCCNC(=O)c1ccccc1NC(=O)c1ccc(CSc2ccccc2)cc1	inconclusive: 18.4 µM [falling, partial curve, poor fit]
CC(C)CCn1c(=O)c2sccc2n2c(CCCC(=O)Nc3ccc(F)c(Cl)c3)nnc12	inactive
Cc1ccccc1NS(=O)(=O)c1ccc(NC(=O)CSCc2ccc(Br)cc2)cc1	inconclusive: 25.9 µM [falling, single point]
Cc1ccc(NC(=O)c2cc(-c3cccs3)nc3ccccc23)c(C)c1	inactive
C/C(=N\NC(=O)CC(C)C)c1ccc(N2CCCCC2)cc1	inconclusive: 6.51 µM [activator, full curve, poor fit]
CCc1c(C(C)S(=O)(=O)c2ccc(C)cc2)[nH]c(=O)n1-c1ccc(OC(F)(F)F)cc1 (stereo unspecified)	inconclusive: 20.6 µM [falling, single point]
Cc1ccc(-n2ncc3c(SCC(N)=O)ncnc32)cc1C	inconclusive: 4.11 µM [activator, full curve]
Cc1ccc(C)c(N2CCN(S(=O)(=O)c3ccc4c(c3)CCN4C(=O)CCC(=O)O)CC2)c1	inconclusive: 16.4 µM [falling, single point]
Cc1ccc(N2CCN(C(=O)Nc3cn(CC(C)C)c(=O)c4ccccc34)CC2)c(C)c1	inconclusive: 29.1 µM [falling, single point]
Cn1c(=O)n(C)c2cc(NC(=O)CSc3nc4ccccc4c(=O)[nH]3)ccc21	inconclusive: 18.4 µM [falling, single point]
C=C(C)CSc1nncn1/N=C/c1ccc(OC)cc1	inconclusive: 14.6 µM [activator, partial curve]
COc1ccccc1NC(=O)C(C)OC(=O)Cc1n[nH]c(=O)c2ccccc12 (stereo unspecified)	inconclusive: 36.6 µM [falling, partial curve, poor fit]
COc1ccnc(CSC(N)=Nc2ccccc2OC)c1	inactive
Cc1nc(N2CCOCC2)c2c(C)c(C(=O)Nc3ccc(F)cc3F)sc2n1	inconclusive: 16.4 µM [falling, partial curve, poor fit]
O=C(NCc1csc2ccccc12)Nc1cc(Cl)cc(Cl)c1	inconclusive: 25.9 µM [falling, partial curve, poor fit]
COC(=O)C1=CN(C(C)c2ccccc2)C=C(C(=O)OC)C1c1cc(OC)c(OC)c(OC)c1 (stereo unspecified)	inconclusive: 29.1 µM [falling, single point]
CN(CCOc1ccc(Cl)cc1)C(=O)c1cc(-c2ccco2)nc2ccccc12	inconclusive: 29.1 µM [falling, single point]
Cc1ccc(C(=O)OC(C)C(=O)N(C)C2CCCCC2)cc1S(=O)(=O)N1CCCCC1 (stereo unspecified)	inconclusive: 3.66 µM [falling, partial curve, poor fit]

SMILES	Potency
CCCCC(=O)Nc1cccc(-c2nc3ccccc3s2)c1	inconclusive: 10.3 µM [activator, partial curve, poor fit]
Cc1ccc(NC(=O)CCSCCC(=O)Nc2ccc(C)c(C)c2)cc1C	inactive
CCCOc1cccc(C(=O)NCCCNC(=O)c2cccnc2)c1	inconclusive: 18.4 µM [falling, partial curve, poor fit]
CCCCN(C)CC(O)Cn1cc(/C=C/C(=O)c2ccc(OCC)cc2)c2ccccc21 (stereo unspecified)	inconclusive: 20.6 µM [activator, single point]
FC(F)(F)c1cccc(NC(=S)NCc2ccccc2)c1	inconclusive: 7.31 µM [falling, single point]
COc1ccc(N2CCN(C(c3cc(OC)ccc3OC)c3nnnn3Cc3ccco3)CC2)cc1 (stereo unspecified)	inconclusive: 5.8 µM [falling, partial curve, poor fit]
CC(=O)c1sc2nc(-c3cccs3)cc(C(F)(F)F)c2c1N	inactive
Cc1ccc(-n2nnnc2SCCNS(=O)(=O)c2ccccc2)cc1C	inconclusive: 29.1 µM [falling, single point]
O=C(N/N=C/c1c[nH]c2ccccc12)c1cc(Cl)ccc1O	inconclusive: 7.31 µM [activator, partial curve, poor fit]
CCOC(=O)CCSCC(=O)N1N=C(c2cccs2)CC1c1ccc(C)cc1 (stereo unspecified)	inactive
FC(F)Oc1ccccc1/C=N/n1cnc2ccccc21	inconclusive: 6.51 µM [activator, partial curve]
Cc1ccc(CNC(=O)C2CC(c3cccc([N+](=O)[O-])c3)=NO2)o1 (stereo unspecified)	inconclusive: 8.2 µM [activator, partial curve, poor fit]
CN1CCN(S(=O)(=O)c2cc(Cl)c(Cl)cc2Cl)CC1	inactive
CC1=NNC(=O)/C1=C\c1cn(-c2ccccc2)nc1-c1cccs1	inconclusive: 25.9 µM [falling, single point]
CN(c1ccc(Cl)cc1)S(=O)(=O)c1nnc(NC(=O)c2ccco2)s1	inconclusive: 25.9 µM [activator, single point]
Cc1nn(-c2ccccc2)c2sc(C(=O)N(CC(=O)NC3CCCC3)Cc3ccco3)cc12	inconclusive: 18.4 µM [falling, partial curve, poor fit]
CC(C)NC(=S)NC(=O)/C=C/c1ccc(F)cc1	inconclusive: 23.1 µM [falling, partial curve, poor fit]
CCOc1ccccc1NC(=O)CCS(=O)(=O)c1ccc(OC)cc1	inconclusive: 4.61 µM [activator, partial curve, poor fit]
Cc1nc2ccc(NC(=O)c3cc(Cl)ccn3)cc2s1	inconclusive: 6.51 µM [activator, full curve]
Cc1ccc(C)c(S(=O)(=O)Nc2ccccc2C(=O)Nc2ccccc2N2CCOCC2)c1	active: 23.1 µM

3 entries from above, reformatted.
FC(F)(F)c1cccc(NC(=S)NCc2ccccc2)c1
  Potency: inconclusive: 7.31 µM [falling, single point]
COc1ccc(N2CCN(C(c3cc(OC)ccc3OC)c3nnnn3Cc3ccco3)CC2)cc1 (stereo unspecified)
  Potency: inconclusive: 5.8 µM [falling, partial curve, poor fit]
CC(=O)c1sc2nc(-c3cccs3)cc(C(F)(F)F)c2c1N
  Potency: inactive
